No constants are given. Whether binding was seen depends on the method and setting. Some binding calls cover weakened binding; strength is not graded here. Where a sequence is shown, tags or fusion partners need not be part of it.
Biological target: T1, TOPLESS (TPL) fused with GAL4 DNA binding domain (Arabidopsis thaliana) (UniProt Q94AI7)
T1 sequence: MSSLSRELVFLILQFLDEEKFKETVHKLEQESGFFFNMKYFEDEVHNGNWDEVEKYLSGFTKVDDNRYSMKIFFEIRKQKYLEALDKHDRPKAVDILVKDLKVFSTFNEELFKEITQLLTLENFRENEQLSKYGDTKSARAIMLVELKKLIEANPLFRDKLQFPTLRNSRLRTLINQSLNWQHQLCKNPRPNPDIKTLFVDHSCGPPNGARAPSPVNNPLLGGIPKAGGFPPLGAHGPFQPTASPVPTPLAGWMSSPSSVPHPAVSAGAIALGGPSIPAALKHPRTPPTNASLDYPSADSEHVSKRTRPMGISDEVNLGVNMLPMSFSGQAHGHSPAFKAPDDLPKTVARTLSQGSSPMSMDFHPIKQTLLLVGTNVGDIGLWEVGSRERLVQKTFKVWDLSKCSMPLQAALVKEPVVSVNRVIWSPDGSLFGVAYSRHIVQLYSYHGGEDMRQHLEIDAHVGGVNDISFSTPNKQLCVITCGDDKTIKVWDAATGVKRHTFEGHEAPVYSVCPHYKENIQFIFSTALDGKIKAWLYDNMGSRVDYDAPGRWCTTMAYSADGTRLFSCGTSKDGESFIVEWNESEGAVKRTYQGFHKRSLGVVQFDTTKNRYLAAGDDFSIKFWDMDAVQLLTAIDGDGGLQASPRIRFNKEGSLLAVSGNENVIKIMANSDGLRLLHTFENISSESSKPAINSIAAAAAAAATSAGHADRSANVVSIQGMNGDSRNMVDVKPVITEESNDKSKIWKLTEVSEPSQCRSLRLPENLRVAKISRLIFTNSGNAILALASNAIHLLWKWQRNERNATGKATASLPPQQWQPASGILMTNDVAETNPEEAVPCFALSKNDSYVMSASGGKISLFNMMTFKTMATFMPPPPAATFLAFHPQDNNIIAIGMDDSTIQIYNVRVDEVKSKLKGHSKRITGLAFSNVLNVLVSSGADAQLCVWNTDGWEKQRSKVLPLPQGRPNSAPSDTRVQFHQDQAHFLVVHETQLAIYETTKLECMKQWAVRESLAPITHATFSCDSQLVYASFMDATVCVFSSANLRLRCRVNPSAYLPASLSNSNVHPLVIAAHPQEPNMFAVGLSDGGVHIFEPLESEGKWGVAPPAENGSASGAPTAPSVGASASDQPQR
Experiment: two-hybrid; Matchmaker system, yeast AH109, co-transformation; TPL fused with GAL4-BD, ARF2 full length, domains or mutated MDs fused with GAL4-AD; serial 1:10 dilutions on SD2-, SD3- (0.2-0.5 mM 3-amino-triazole) or SD4-, 30°C, growth observed 4-10 days after plating

B1: ARF2 full length fused with GAL4 activation domain (protein, UniProt Q94JM3 1-859)
chain: MASSEVSMKGNRGGDNFSSSGFSDPKETRNVSVAGEGQKSNSTRSAAAERALDPEAALYRELWHACAGPLVTVPRQDDRVFYFPQGHIEQVEASTNQAAEQQMPLYDLPSKLLCRVINVDLKAEADTDEVYAQITLLPEANQDENAIEKEAPLPPPPRFQVHSFCKTLTASDTSTHGGFSVLRRHADECLPPLDMSRQPPTQELVAKDLHANEWRFRHIFRGQPRRHLLQSGWSVFVSSKRLVAGDAFIFLRGENGELRVGVRRAMRQQGNVPSSVISSHSMHLGVLATAWHAISTGTMFTVYYKPRTSPSEFIVPFDQYMESVKNNYSIGMRFKMRFEGEEAPEQRFTGTIVGIEESDPTRWPKSKWRSLKVRWDETSSIPRPDRVSPWKVEPALAPPALSPVPMPRPKRPRSNIAPSSPDSSMLTREGTTKANMDPLPASGLSRVLQGQEYSTLRTKHTESVECDAPENSVVWQSSADDDKVDVVSGSRRYGSENWMSSARHEPTYTDLLSGFGTNIDPSHGQRIPFYDHSSSPSMPAKRILSDSEGKFDYLANQWQMIHSGLSLKLHESPKVPAATDASLQGRCNVKYSEYPVLNGLSTENAGGNWPIRPRALNYYEEVVNAQAQAQAREQVTKQPFTIQEETAKSREGNCRLFGIPLTNNMNGTDSTMSQRNNLNDAAGLTQIASPKVQDLSDQSKGSKSTNDHREQGRPFQTNNPHPKDAQTKTNSSRSCTKVHKQGIALGRSVDLSKFQNYEELVAELDRLFEFNGELMAPKKDWLIVYTDEENDMMLVGDDPWQEFCCMVRKIFIYTKEEVRKMNPGTLSCRSEEEAVVGEGSDAKDAKSASNPSLSSAGNS
B1 was tested, and the binding was “binds”.

B2: ARF2 PB1 domain fused with GAL4 activation domain (domain or fragment, UniProt Q94JM3 733-817)
chain: RSCTKVHKQGIALGRSVDLSKFQNYEELVAELDRLFEFNGELMAPKKDWLIVYTDEENDMMLVGDDPWQEFCCMVRKIFIYTKEE
B2 was tested, and the binding was “no binding”.
